This note sets out measurements from PubChem BioAssay AID1045 (SRMLSC, 2008).

Molecules are shown by their SMILES. Out of some 1,500 compounds screened, about 1,400 (93%) were called active. The rule behind the calls is not given here. So high a share suggests a set chosen from earlier hits. This is a selection; strong and weak results do not stand in their true shares. Entries with a potency or affinity are not part of this list.

A short description of the assay: growth suppression of beta-catenin-knockout colon cells, dose response, cell-based, HCT116, human colon tumor (AID 1045). The note with it: CellTiter-Glo, 60 h; at 30 µM (top of the series). (In ATP-based viability assays light output follows the ATP content of the culture.)
What is called viability is a per cent measure of how many cells are alive, often set against a control. For `CC(C)N1C(=O)/C(=C/C=C/c2ccco2)C(=O)N(Cc2ccco2)C1=O`, the viability was inactive: 88.8%. With `COc1ccc(CCNC(=O)c2c(N)n(CCN3CCOCC3)c3nc4ccccc4nc23)cc1OC` the figure was inactive: 88%.
